# Changes are numbered by the printed parent chain. No constants are given. Whether binding was seen depends on the method and setting. Some binding calls cover weakened binding; strength is not graded here.
# Protein sequences, listed by entry. Tags and fused reporters are not part of them. Lines headed by an entry give the natural chain unless they say otherwise; changes in a name come on top.
# UniProt P36888: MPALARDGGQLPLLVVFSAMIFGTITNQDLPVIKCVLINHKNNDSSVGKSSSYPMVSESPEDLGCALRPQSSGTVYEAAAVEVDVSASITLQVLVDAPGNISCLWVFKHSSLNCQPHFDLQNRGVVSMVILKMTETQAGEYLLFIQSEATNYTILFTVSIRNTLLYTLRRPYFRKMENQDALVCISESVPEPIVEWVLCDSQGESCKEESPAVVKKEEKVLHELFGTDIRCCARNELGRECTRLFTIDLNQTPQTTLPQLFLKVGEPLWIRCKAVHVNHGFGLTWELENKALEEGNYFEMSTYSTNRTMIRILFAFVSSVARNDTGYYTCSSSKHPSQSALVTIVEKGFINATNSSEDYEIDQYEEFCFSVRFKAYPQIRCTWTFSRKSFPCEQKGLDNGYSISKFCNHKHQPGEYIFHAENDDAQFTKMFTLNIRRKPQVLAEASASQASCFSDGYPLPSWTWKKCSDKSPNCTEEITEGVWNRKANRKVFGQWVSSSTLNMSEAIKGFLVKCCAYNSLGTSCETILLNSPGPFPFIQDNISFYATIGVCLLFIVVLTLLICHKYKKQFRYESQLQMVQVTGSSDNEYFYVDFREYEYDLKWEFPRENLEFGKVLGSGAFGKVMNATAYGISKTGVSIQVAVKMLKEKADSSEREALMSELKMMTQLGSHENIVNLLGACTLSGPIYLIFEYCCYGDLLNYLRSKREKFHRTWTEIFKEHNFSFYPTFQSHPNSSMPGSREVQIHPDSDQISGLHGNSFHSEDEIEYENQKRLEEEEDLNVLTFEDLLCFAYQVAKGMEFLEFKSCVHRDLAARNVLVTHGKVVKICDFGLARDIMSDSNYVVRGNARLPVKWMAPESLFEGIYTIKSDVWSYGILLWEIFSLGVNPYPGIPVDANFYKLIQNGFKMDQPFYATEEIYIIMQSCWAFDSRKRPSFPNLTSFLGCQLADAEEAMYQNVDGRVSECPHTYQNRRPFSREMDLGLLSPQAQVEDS
# B1: FLL53 (VHH)
# VHH: QVQLQESGGGLVQAGDSLRLSCAVSGRTFSGFGTGWFRQAPGKEREFVAAVSQSGGTTHYADSVKGRFTISRDNAKNTETLVYLQMNSLKPEDTAVYYCAGQVARAYDSSWYARGDYWGQGTQVTVSS
# B2: FLL74 (VHH)
# VHH: QVQLQESGGGLVQAGGSLRLSCRFSGRTFSGFGTGWFRQAPGKEREFVAAISWAGGRTHYEDSVKGRFTISRDNAKNTVYLQMNSLKPEDTAVYYCAVQVSRAYDGIWYSGGDYWGQGTQVTVSS
# B3: FLL102 (VHH)
# VHH: QVQLQESGGGLVQAGGSLMVSCAASGGTWSSYATGWFRQVPGKERKLIAGISRSGGRTYYAESVKGRFTISRDNAKNTVYLQMNTLKPDDTAVYYCAAARYFTSSVVYTSGNDYDYWGQGTQVTVSS
# B4: FLL122 (VHH)
# VHH: B3 VHH with K46E
# B5: FLL134 (VHH)
# VHH: QVQLQESGGGLVQPGGSLRLSCAASGGTFSSYATGWFRQVPGKEREFIAGISRNSGRTYAESVKGRFTISRDNAKNTVYLQMNTLRPDDTAVYYCAAARYFTRDAIYTSGDDYDYWGQGTQVTASS
# B6: FLL153 (VHH)
# VHH: QVQLQESGGGLVQVGGSLMVSCAASGGTFSSYATGWFRQVPGKEREFIAGVSRNSGRTYYAESVKGRFTISRDNAKNTVYLQMNTLKPDDTGVYYCAAARYFTRDAVYTSGDDYDYWGQGTQVTVSS
# B7: FLL41 (VHH)
# VHH: B3 VHH with A14L, G16D, W29F, K43R, K46E, L47F, S104T, N112D
# B8: FLL67 (VHH)
# VHH: B3 VHH with A14L, G16D, W29F, K46E, L47F, S104T, N112D
# B9: FLL92 (VHH)
# VHH: B3 VHH with K46E, P88S
# B10: FLL71 (VHH)
# VHH: B6 VHH with V51I, G92A
# B11: FLL8 (VHH)
# VHH: B6 VHH with V51I, G92A, A106V
# B12: FLL84 (VHH)
# VHH: B3 VHH with W29F, K46E, L47F, S104T, N112D
# B13: FLL107 (VHH)
# VHH: QVQLQESGGGLVQAGGSLRLSCAASGRTFSSYAMGWFRQAPGKEREFVAAISWSGSNTYYADSVKGRFTISRDNAKNTVYLQMDSLKPEDTAVYYCAAGGSTRVVVTTTPVVKYWGQGTQVTVSS
# B14: FLL141 (VHH)
# VHH: B13 VHH with K43M, S56Y, N57S, N74D
# B15: FLL34 (VHH)
# VHH: B13 VHH with M34L, S56G, N74D
# B16: FLL4 (VHH)
# VHH: B13 VHH with G26E, A33T, I51M, S56G, N57S
# B17: FLL61 (VHH)
# VHH: B13 VHH with G26E, S56G, N57S, V111I
# B18: FLL78 (VHH)
# VHH: B13 VHH with L11W, N57S, Q82L
# B19: FLL1 (VHH)
# VHH: QVQLQESGGGLVQAGGSLRLSCAASGRTFSTLTVAWFRQAPGKEREFVVASIPSGSNTGYAESVKGRFTISRDIAKNTVYLQMNSLKPEDTAMYFCAARIYFGSSRGYDYWGQGTQVTVSS
# B20: FLL26 (VHH)
# VHH: B19 VHH with S30T, L32Y, V48L, S54T, G59A, D73G, I74N, F95Y, I100T
# B21: FLL160 (VHH)
# VHH: QVQLQESGGGLVQAGDSLRLSCATSGRTFNLYRVGWFRQAPGKEREFVARITWSADITQYADSVKGRFTISRDNAKNTVYLQMNSLKPEDTAIYYCATTLRKSSGIYHVDDYDDWGQGTQVTVSS
# B22: FLL173 (VHH)
# VHH: B21 VHH with D16G, A61T, V109T, D114Y
# B23: FLL178 (VHH)
# VHH: QVQLQESGGGLVQPGGSLRLSCAASGFTFSDYAMSWVRQAPGKGLEWVSGISSGGYKIGYTDSTKGRFTISRDNAKNTLYLQMNSLTAEDTAVYYCAKGTQWSWSLRDNTSRGQGTQVTVSS
# B24: FLL27 (VHH)
# VHH: B23 VHH with A23K, D31S, T87N, S105A, N109S
# B25: FLL190 (VHH)
# VHH: QVQLQESGGGLVQAGGSLTLSCTASGSTFSINHFSWYRQAPGKQRELVAFISSDGVSIDVESVKGRFTISGDNDKNTAYLQMNGLKPEDTAVYYCYYRGFWGQGTQVTVSS
# B26: FLL43 (VHH)
# VHH: B25 VHH with A14P, S35A, V56R, I58T, F100S
# B27: FLL15 (VHH)
# VHH: QVQLQESGGGLVQAGGSLSLSCAASEGTISHAAMGWFRQAPGKERQFVAYDTWTGGSTNYADSVKDRFTITGDHAKNTVYLQMNSLKPEDTGVYYCAVRGRYSASYTYTNPASYKYWGQGTQVTVSS
# B28: FLL45 (VHH)
# VHH: QVQLQESGGGLVQAGGSLRLSCAASGGTFSSSAMGWFRQAPGKEREFVATITQNDVPTYYTHSVKGRFTISRDNAKNTMYLQMNSLKPEDTAVYYCAQRVAQASGWRTTIKDYGYWGQGTQVTVSS
# B29: FLL39 (VHH)
# VHH: QVQLQESGGGLVQAGGSLRLSCAASGLTSSTYRMAWFRQAPGKEREFAAGISYSADSGGSTNYADSVKGRFTISRDNAKNTVYLQMSSLKPEDTAVYYCAAGRYSGTYNSPYSSSYVYWGQGTQVTVSS
# B30: FLL177 (VHH)
# VHH: QVQLQESGGGLVQTGGSLRLSCAASGSTFSRNTMGWFRQAPGKERVFVLGISWSGIRSYYLDSAKARFTISRDNAKNTVYLQMNSLRPEDTAVYYCAAQEGSSPGPYKYWGQGTQVTVSS
# B31: FLL823 (VHH)
# VHH: QVQLQESGGGVVQVGGSLRLSCAASGGTFGYYAVGWFRQAPGKEREFVAAVTWNGAYLYSDPVKGRFTISRDNAKNTVYLQMNSLKSEDTAVYYCGLDRWSAVVESTPSTRGQGTQVTVSS
# B32: FLL76 (VHH)
# VHH: QVQLQESGGGLVQAGGSLRLSCAASGGAFSSYVMGWFRQAPGKEREFVAAVISWSGRITDYADSVKGRFSISRDNAKSTVYLQMNNLKPEDTAVYYCAAKTGMYIDLRTSTFDYWGQGTQVTVSS
# B33: FLL822 (VHH)
# VHH: QVQLQESGGGSVQAGGSLRLSCTASGRTFTDYTMGWFRQAPGKEREFMLGISSNGYRRYYTGSMKDRFTISRDNVKKTVYLQMNDLKPEDTAVYYCAASEDHGAPRYDYWGQGTQVTVSS
# Target: human FLT3 protein (human) (UniProt P36888)
# Assay: colorimetric ELISA, periplasmic extract
row,Binder,binding
1,B1,binds
2,B2,binds
3,B3,binds
4,B4,binds
5,B5,binds
6,B6,binds
7,B7,binds
8,B8,binds
9,B9,binds
10,B10,binds
11,B11,binds
12,B12,binds
13,B13,binds
14,B14,binds
15,B15,binds
16,B16,binds
17,B17,binds

row,Binder,binding
1,B18,binds
2,B19,binds
3,B20,binds
4,B21,binds
5,B22,binds
6,B23,binds
7,B24,binds
8,B25,binds
9,B26,binds
10,B27,binds
11,B28,binds
12,B29,binds
13,B30,binds
14,B31,binds
15,B32,binds
16,B33,binds

# — patent US20210261671A1
